Here are results for three substances from article PMC8358030.

Sequences of proteins named here, by UniProt entry; tags and fusion partners are left off. A change or cut given only in a name is not applied to a line headed by its entry. A line that says so, or that is headed by a name, gives the form on record, which may keep a tag or linker. Residues count along the entry.
UniProt P53667: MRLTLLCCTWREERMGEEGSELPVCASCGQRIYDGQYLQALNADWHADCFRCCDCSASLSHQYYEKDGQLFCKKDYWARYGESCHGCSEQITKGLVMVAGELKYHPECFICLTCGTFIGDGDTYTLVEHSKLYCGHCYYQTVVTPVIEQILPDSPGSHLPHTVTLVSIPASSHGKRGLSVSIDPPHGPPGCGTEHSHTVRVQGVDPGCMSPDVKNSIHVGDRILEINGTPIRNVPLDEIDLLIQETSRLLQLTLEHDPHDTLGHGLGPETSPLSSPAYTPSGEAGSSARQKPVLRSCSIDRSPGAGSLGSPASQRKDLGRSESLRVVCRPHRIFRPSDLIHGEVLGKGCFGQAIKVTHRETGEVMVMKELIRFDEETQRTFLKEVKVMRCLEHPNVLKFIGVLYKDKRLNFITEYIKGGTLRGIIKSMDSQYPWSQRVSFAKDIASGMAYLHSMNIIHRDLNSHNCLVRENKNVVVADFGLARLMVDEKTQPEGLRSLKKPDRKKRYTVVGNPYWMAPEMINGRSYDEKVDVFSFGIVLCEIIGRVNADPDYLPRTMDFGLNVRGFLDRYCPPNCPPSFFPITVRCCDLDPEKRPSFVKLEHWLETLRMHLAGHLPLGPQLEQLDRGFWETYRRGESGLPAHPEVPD
DYK-tagged-∆CAPN2 (1–447) (P17655, residues 1-447): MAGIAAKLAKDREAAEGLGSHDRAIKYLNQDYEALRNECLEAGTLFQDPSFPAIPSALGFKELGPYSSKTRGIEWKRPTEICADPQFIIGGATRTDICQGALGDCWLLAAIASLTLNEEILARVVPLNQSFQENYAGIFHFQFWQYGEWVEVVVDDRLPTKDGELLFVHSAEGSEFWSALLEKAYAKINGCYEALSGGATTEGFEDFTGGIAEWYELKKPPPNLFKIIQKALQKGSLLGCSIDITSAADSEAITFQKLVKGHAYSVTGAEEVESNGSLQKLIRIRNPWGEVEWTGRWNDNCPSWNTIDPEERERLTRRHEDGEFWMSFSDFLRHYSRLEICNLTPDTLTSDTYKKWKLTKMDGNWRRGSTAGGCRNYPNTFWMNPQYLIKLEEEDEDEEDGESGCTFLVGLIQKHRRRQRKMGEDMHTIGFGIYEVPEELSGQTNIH
DYK-tagged full-length CAPN2 (P17655, residues 20-700): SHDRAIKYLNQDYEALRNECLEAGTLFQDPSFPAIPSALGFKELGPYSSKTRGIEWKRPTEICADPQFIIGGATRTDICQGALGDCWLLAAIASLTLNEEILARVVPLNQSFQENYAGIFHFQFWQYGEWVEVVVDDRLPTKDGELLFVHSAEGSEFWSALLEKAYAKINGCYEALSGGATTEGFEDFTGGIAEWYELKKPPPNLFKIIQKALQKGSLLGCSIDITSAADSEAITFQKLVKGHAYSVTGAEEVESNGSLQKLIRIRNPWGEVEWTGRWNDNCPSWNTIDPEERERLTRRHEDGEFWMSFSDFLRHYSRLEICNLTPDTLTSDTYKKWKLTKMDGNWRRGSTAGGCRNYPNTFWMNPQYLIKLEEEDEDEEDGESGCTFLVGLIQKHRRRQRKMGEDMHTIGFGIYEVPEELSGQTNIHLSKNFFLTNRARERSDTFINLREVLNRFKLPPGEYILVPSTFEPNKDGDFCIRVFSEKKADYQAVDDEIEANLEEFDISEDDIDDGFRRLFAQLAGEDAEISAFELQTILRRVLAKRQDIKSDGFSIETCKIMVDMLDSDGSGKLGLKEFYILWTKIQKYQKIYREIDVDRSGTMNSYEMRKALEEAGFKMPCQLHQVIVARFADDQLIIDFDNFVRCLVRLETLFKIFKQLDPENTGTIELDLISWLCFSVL

The target in experiment [1] is LIM Kinase-1 (LIMK1), endogenous in MDA-MB-231 cells (human (endogenous in MDA-MB-231)) (UniProt P53667). In words: co-IP; whole extracts (RIPA) of MDA-MB-231 cells transfected with scRNA (control); anti-Ct-LIMK1 on Dynabeads protein G, 200 μg extract; western blot with anti-CAPN2 and anti-CFL1. For orientation: Immunoblotting shows a protein as a band on a membrane.

The target in experiment [2] is LIM Kinase-1 (LIMK1), endogenous in MCF-7 cells (human (endogenous in MCF-7)) (UniProt P53667). In words: co-IP; protein extracts (RIPA) of MCF-7 cells overexpressing DYK-CAPN2 or DYK-∆CAPN2 for 48 h; anti-Ct-LIMK1 on Dynabeads protein G; western blot with anti-CAPN2.

No constants are given. Whether binding was seen depends on the method and setting. Binding seen in cells or lysates may run through a third protein. Some results given as binding are weak or reduced against the parent protein; the word gives no strength.

Regarding “Calpain-2 (CAPN2), endogenous in MDA-MB-231 cells (from UniProt P17655-1 20-700) (enzyme)”, in experiment [1], the binding result is recorded as “binds”.

Take “DYK-tagged full-length CAPN2 (from UniProt P17655-1 20-700) (enzyme)”: the binding result in experiment [2] is “binds”.

With “DYK-tagged-∆CAPN2 (1–447) (from UniProt P17655-1 1-447) (domain or fragment)”, the binding entry in experiment [2] is reported as “no binding”.
